Measured values as given in US20220135701A1 (Genentech, published 2022).
No constants are given. Whether binding was seen depends on the method and setting. Some results given as binding are weak or reduced against the parent protein; the word gives no strength.

T1: human MerTK (human, UniProt Q12866 26-499)
T1 construct: also called HuMER
T1 sequence: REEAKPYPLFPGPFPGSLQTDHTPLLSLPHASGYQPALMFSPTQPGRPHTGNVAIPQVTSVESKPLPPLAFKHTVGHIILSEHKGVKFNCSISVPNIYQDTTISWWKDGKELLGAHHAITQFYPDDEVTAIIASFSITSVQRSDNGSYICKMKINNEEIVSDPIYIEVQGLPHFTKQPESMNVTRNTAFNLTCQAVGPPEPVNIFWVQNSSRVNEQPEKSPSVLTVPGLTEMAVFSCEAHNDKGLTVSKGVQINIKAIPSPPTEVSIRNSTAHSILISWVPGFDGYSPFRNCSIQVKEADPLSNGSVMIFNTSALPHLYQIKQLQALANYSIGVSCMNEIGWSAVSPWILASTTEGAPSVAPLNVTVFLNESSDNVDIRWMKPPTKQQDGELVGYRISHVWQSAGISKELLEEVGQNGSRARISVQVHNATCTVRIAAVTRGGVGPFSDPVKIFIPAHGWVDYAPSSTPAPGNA

T2: rat MerTK (rat, UniProt P57097 23-496, limits assumed)
T2 construct: Soluble analyte in SPR
T2 sequence (looked up): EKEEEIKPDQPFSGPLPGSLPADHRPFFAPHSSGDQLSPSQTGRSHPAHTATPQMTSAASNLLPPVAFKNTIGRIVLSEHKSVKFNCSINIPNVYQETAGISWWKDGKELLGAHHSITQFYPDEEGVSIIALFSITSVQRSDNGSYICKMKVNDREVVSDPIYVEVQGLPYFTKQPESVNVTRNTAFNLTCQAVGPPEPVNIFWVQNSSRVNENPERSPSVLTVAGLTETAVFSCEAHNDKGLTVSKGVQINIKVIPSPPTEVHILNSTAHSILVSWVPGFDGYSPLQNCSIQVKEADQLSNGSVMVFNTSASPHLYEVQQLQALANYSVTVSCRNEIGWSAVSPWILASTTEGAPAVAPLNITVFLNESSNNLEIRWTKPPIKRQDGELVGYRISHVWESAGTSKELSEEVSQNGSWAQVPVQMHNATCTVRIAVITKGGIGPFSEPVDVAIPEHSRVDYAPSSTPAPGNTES

T3: mouse MerTK (mouse, UniProt Q60805 23-496)
T3 construct: also called MuMER
T3 sequence (looked up): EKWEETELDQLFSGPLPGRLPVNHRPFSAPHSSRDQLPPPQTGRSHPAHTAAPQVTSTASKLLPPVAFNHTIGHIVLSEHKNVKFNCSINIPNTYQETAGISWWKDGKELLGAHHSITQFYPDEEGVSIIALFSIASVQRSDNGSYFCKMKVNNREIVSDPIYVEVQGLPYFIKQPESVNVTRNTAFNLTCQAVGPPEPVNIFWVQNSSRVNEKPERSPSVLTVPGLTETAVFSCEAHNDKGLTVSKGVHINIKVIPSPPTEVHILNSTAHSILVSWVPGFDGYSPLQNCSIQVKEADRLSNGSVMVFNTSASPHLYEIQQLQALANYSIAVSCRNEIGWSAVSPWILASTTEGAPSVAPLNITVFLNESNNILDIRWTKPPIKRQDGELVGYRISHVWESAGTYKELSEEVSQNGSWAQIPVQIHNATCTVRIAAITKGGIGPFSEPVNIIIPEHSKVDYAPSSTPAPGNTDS


Key:
[1] = target: T1, human MerTK; experiment: SPR BIAcore T200
[2] = target: T1, human MerTK; experiment: SPR classic sandwich format: h13B4.v16 (2 ug/mL) captured by goat anti-human Fab chip, HuMerTK 50 nM injected
[3] = target: T2, rat MerTK; experiment: SPR BIAcore T200
[4] = target: T3, mouse MerTK; experiment: SPR BIAcore T200
[5] = target: cynomolgus monkey MerTK (cynomolgus monkey); experiment: SPR BIAcore T200

binding [1] | binding [2] | binding [3] | binding [4] | binding [5] | Binder
binds | binds |  |  |  | h13B4.v16 (antibody, V domains shown, Humanized, human IgG1; also called 13B4 Fully Humanized; 13B4 Humanized polished mAb) VH: EVQLVESGEGLVQPGGSLRLSCAASGFSLSSYAMGWVRQAPGKGLEYVGIINSYGNTYYANWAKGRFTISRDNSKNTVYLQMGSLRAEDMAVYYCARDPGVSSNLWGRGTLVTVSS VL: DIQMTQSPSTLSASVGDRVTITCQASQNIYSGLAWYQQKPGKAPKLLIYGASKLASGVPSRFSGSGSGTEFTLTISSLQPDDFATYYCQATYYSSNSVAFGGGTKVEIK
binds |  | binds | binds | binds | h9E3.FN.v1 (antibody, V domains shown, also called h9E3.FN.V1 (Parent); 9E3.FN Humanized mAb V1) VH: EQQLVESGGGLIQPGGSLRLSCAVSGFSLSSNAMSWVRQAPGKGLEWIGIISSSGSTYSASWAKGRFTISKDSSKNTMYLQMNSLRAEDTAVYFCARVGFFVGYGAYDYGIIHRLDLWGQGTLVTVSS VL: DAQLTQSPSTLSASVGDRVTITCQSSKSIYNNNWLSWYQQKPGKPPKLLIYDASDLASGVPSRFSGSGSGTEFTLTISSLQPDDFATYYCAGGYSGDSDYAFGGGTKVEIK
binds |  | binds | binds | binds | h9E3.FN.v16 (antibody, V domains shown, Humanized, human IgG1; also called 9E3.FN Humanized polished mAb) VH: EVQLVESGGGLIQPGGSLRLSCAASGFSLSSNAMSWVRQAPGKGLEWVSIISSSGSTYSASWAKGRFTISKDNSKNTLYLQMNSLRAEDTAVYYCARVGFFVGYGAYDYGIIHRLDLWGQGTLVTVSS VL: DIQLTQSPSTLSASVGDRVTITCQSSKSIYNNNWLSWYQQKPGKPPKLLIYDASDLASGVPSRFSGSGSGTEFTLTISSLQPDDFATYYCAGGYSGDSDYAFGGGTKVEIK
